From PubChem BioAssay AID2685 (National Center for Advancing Translational Sciences (NCATS), 2010)
Where “and” joins values, the source holds several entries; their conditions need not be identical. Identical values can stand only once. The list shows a part of the results. The main result of the screen is listed elsewhere. These columns were measured beside it and carry no call. The list favours compounds with an active or inconclusive main result. The note in brackets gives the kind of curve behind each potency; many fits are weak.

Assay: qHTS Assay for Lipid Storage Modulators in Drosophila S3 Cells;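 for cell number change: cells counted by Cell Tracker Red CMTPX staining in the red channel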
Details: BODIPY lipid droplet fluorescence, 18-24 h; for cell number change: measured here: cell count max response, cells fed with added oleic acid
Method in brief: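 Laser-scanning cytometry quantifies lipid droplet accumulation (500–530 nm total intensity; droplet/cell object ratio) in oleic acid-fed (400 uM added) Drosophila S3 cells treated with a concentration series. 20 uM Triacsin C defined 100% inhibition.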

[1] = measured here: cell number channel AC50, cells fed with added oleic acid
[2] = measured here: lipid fluorescence (Fed channel) AC50, cells fed with added oleic acid

Structure (SMILES)	cell number change	AC50 [1]	AC50 [2]
Cc1ccc(-n2c(Cc3cccs3)nnc2SCC(=O)Nc2ccc(F)c(F)c2)cc1	-53.3%	29.1 µM [falling, single point]	
Cc1cccc(C)c1OCC(=O)Nc1nnc(C2CCCO2)s1 (centres undefined)	32%	4.61 µM [rising, full curve, poor fit]	4.11 µM [rising, full curve]
Cc1nnc(SCC(=O)O)o1	7.71%		6.51 µM [falling, single point]
Clc1ccc(OCc2nc(-c3ccc(Br)o3)no2)cc1	56.1%	13 µM [rising, partial curve]	16.4 µM [rising, partial curve]
COc1ccc(CCNC(=O)C2CCN(S(=O)(=O)c3ccc4nc5c(c(C(=O)O)c4c3)CCCC5)CC2)cc1OC	-9.23%		29.1 µM [rising, single point]
O=C(COc1ccccc1)NCC(=O)N/N=C/c1cccs1	-6.13%		7.31 µM [falling, single point]
Cc1ccc(NC(=O)Cc2noc3ccccc23)c(C)c1	17.2%		0.0259 µM [rising, partial curve, poor fit]
COc1cccc(NC(=O)COC(=O)/C=C/c2c(C)nn(-c3ccccc3)c2C)c1	-14.9%		8.2 µM [rising, partial curve, poor fit]
CCOC(=O)C(=O)/C(=C\N(C)C)c1onc(-c2ccccc2Cl)c1C(=O)OC	14%	5.8 µM [falling, partial curve]	
COc1ccc(OC)c(NC(=O)CSc2nnnn2-c2ccccc2F)c1	-7.49%		1.46 µM [rising, single point]
Cc1ccccc1COc1ccc(/C(O)=C2/C(=O)C(=O)N(CCCn3ccnc3)C2c2ccco2)cc1 (centres undefined)	1.54%		
CCn1c(SCC(=O)NCc2ccco2)nc2c(c1=O)SC(C)C2 (centres undefined)		0.58 µM [rising, single point]	
Cc1ccc(C)c(NC(=O)C(Sc2nc3ccc(C)cc3[nH]2)c2ccccc2)c1 (centres undefined)			6.51 µM [rising, full curve]
COc1ccccc1CN1CC(C(=O)NCCn2nc(C)cc2C)CCC1=O (centres undefined)	-2.31%		0.00517 µM [rising, full curve, poor fit]
N#Cc1sc2nc(-c3ccccc3)cc(-c3ccco3)c2c1N	38.9%	0.0731 µM [rising, full curve]	0.092 µM [rising, full curve]
CC1CCCCN1C(=O)Cn1cc(C=O)c2ccccc21 (centres undefined)	-0.74%		1.16 µM [falling, full curve, poor fit]
CCOC(=O)Cn1c(=O)c2c(nc3n2CCCN3CCc2ccccc2)n(C)c1=O	-13.4%	0.259 µM [rising, full curve]	
CCC(C)NC(=O)CNC(=S)N(Cc1ccccc1F)C1CCCCC1 (centres undefined)	37.4%	0.517 µM [rising, full curve]	3.26 µM [rising, single point]
CC(OC(=O)CN1C(=O)NC2(CCCC2)C1=O)C(=O)c1ccccc1 (centres undefined)	5%		
COc1ccccc1-n1c(SCC(=O)Nc2ccccc2C)nc(O)cc1=O	9.98%		

Structure (SMILES)	cell number change	AC50 [1]	AC50 [2]
CCCCCc1cc(=O)oc2c(C(CCN(CC)CC)c3cc(OC)c(OC)c(OC)c3)c(OC)cc(OC)c12 (centres undefined)	5.56%		0.731 µM [rising, full curve]
O=C(Nc1cccc(C(F)(F)F)c1)N1CCN(C(=O)Nc2cccc(C(F)(F)F)c2)CC1	-23.7%	3.26 µM [falling, full curve, poor fit]	0.651 µM [falling, full curve, poor fit]
O=C(NCc1ccccn1)c1ccc(OC2CCN(Cc3ccccc3)CC2)cc1	24.3%		29.1 µM [rising, single point]
O=C(O)/C(=C\c1ccc(Cl)cc1)c1ccc(S(=O)(=O)N2CCCC2)s1	14.2%	0.00461 µM [rising, full curve, poor fit]	6.51 µM [rising, single point]
Cc1ccc(/C=N/NC(=O)Cn2ccc(C(F)(F)F)n2)o1	-5.02%	0.731 µM [falling, full curve, poor fit]	
CCOC(=O)[C@H]1[C@H]2COc3ccc(Cl)cc3[C@@H]2N2C(=O)CN(Cc3ccc(F)cc3)C(=O)[C@@]12C	4.85%		1.46 µM [falling, single point]
Oc1ccccc1OCC(O)c1ccccc1 (centres undefined)	-8.57%		29.1 µM [rising, partial curve, poor fit]
COc1ccc(Cc2nc(-c3cccnc3)no2)cc1OC	12.8%		
CCOc1cc(C(=O)N2CCOCC2)ccc1OCc1ccccc1	5.36%		6.51 µM [rising, single point]
Cc1ccc(S(=O)(=O)N2CCOCC2)cc1C(=O)N1C(=O)c2cccc(N)c2C1=O	11.6%		0.517 µM [falling, full curve, poor fit]
Cc1ccc(NC(=S)NCc2ccc3c(c2)OCO3)c(C)c1	55.8%	0.326 µM [rising, full curve]	29.1 µM [rising, partial curve]
O=C(NNC(=O)c1cc2ccccc2o1)c1ccc(F)cc1	-5.38%		6.51 µM [falling, single point]
CC1=NN(C(C#N)c2cccc([N+](=O)[O-])c2)C(C)(C)C1 (centres undefined)	52.5%	18.4 µM [rising, single point]	20.6 µM [rising, single point]
CCn1c(CNc2ccc(OC)cc2)nnc1SCC(=O)N1CCCc2ccccc21	-32.9%	0.326 µM [falling, full curve]	
Nc1cc(=O)[nH]c(SCCSc2ccccc2F)n1	-8.97%		
O=C(Cn1ncn2c(cc3ccccc32)c1=O)NCCCc1ccccc1	-5.31%	4.11 µM [falling, single point]	20.6 µM [rising, single point]
O=C1c2ccccc2C(=O)N1c1ccc(-c2nc3ccccc3o2)cc1	17.7%		8.2 µM [rising, partial curve, poor fit]
COc1ccc(N2CC(C(=O)N3CCN(c4ccccc4F)CC3)CC2=O)cc1 (centres undefined)	11.4%		
CC[C@H](C)C(=O)N[C@H]1CCCN1C(=O)/C=C/c1ccccc1	-38.8%	0.517 µM [falling, partial curve, poor fit]	0.184 µM [rising, full curve]
CCC(c1nnc(SCCNCCO)n1CCN1CCOCC1)N(C)C (centres undefined)	9.3%		

Structure (SMILES)	cell number change	AC50 [1]	AC50 [2]
Nc1nnnn1/N=C/c1ccccn1	35%	1.03 µM [rising, full curve, poor fit]	
CC(C)OC(=O)CSc1nnc(-c2ccco2)n1N	18.4%		32.6 µM [falling, single point]
CC(C)(C)c1ccc(/C=N/OCC(=O)NCc2ccccc2)cc1	23.4%		0.0326 µM [falling, full curve, poor fit]
CC(=O)c1ccc(OCCCC(=O)NNC(=O)c2ccccn2)cc1	5.76%		29.1 µM [rising, single point]
O=C(Nc1cccc(-c2cn3c(n2)SCC3)c1)c1ccc2c(c1)OCO2	-12%		0.58 µM [falling, single point]
CCS(=O)(=O)Nc1ccc(-c2cc(-c3ccccc3)c3cc(C)ccc3n2)cc1	-37.6%	29.1 µM [falling, single point]	
Cc1ccc(NC(=O)c2cccnc2C(=O)Nc2ccc(C)cc2)cc1			29.1 µM [rising, single point]
CN(Cc1ccccc1)C(=O)CCc1ccccc1	-38.5%	0.206 µM [falling, full curve, poor fit]	
COCCCNC(=S)N1CCN(c2nc(-c3ccc(F)cc3)cs2)CC1	-38%	0.259 µM [falling, full curve, poor fit]	
COc1cc2cc(CN(CCO)C(=O)c3cccs3)c(=O)[nH]c2cc1OC	-7.61%		3.26 µM [rising, full curve, poor fit]
O=C(Nc1ccc(Cl)c(S(=O)(=O)N2CCOCC2)c1)c1ccccn1			29.1 µM [rising, partial curve, poor fit]
COc1ccc(-c2cc(-c3ccc(O)cc3)nc(N)c2C#N)cc1	4.01%		6.51 µM [falling, single point]
N#Cc1nnn(-c2ccc(Cl)cc2)c1N	6.35% and -25.2%		6.51 µM [falling, single point] and 32.6 µM [falling, single point]
C=C(C)C(=O)O[C@H]1C/C(C)=C\C(=O)/C=C(\C)[C@H](O)[C@@H]2OC(=O)C(=C)[C@@H]21	-17.4%		
O=C(Cn1nnc(-c2ccccc2)n1)Nc1cccc(S(=O)(=O)N2CCOCC2)c1	-25%	3.66 µM [falling, full curve, poor fit]	29.1 µM [falling, single point]
O=C(Nc1ccc(Br)cc1)c1cc(-c2cccs2)on1	-6.25%		
CCOC(=O)CN1C(=O)C(O)(CC(=O)c2cccc(OC)c2)c2ccccc21 (centres undefined)	44.1%		23.1 µM [rising, partial curve]
COCCn1cnnc1SCC(=O)Nc1ccc(N2CCCCC2)cc1	-16.9%		0.103 µM [falling, full curve]
COCCNC(=S)N/N=C/c1c2ccccc2cc2ccccc12	-12.4%		6.51 µM [falling, partial curve]
Cn1c(CSCc2ccc(Cl)cc2)nnc1SCC(=O)Nc1nc2ccccc2s1	19.5%	6.51 µM [rising, single point]	32.6 µM [falling, single point]
